Experimental data: patent publication US20030225152A1, “3-(Arylamino)methylene-1, 3-dihydro-2h-indol-2-ones as kinase inhibitors” (priority 2001, published 2003)
pIC50: −log10 of the molar value. Some entries share one result that the patent states for a list of compounds. At least one read-out could not be matched to a standard name with certainty.

System: VEGF induced increases in intracellular calcium levels in HUVEC (human umbilical vein endothelial cells)
Test: VEGF Stimulated Ca++ Signal in vitro (FLIPR)
Type: cell-based
Conditions: for % inhibition of VEGF or VEGF IC50 in either the VEGF stimulated Ca++ signal assay or KDR assay: either-or criterion summarising Table 2
Description: Cells were loaded with calcium indicator Fluo-4 for 45 minutes at 37° C. Cells were washed 4 times (Original Cell Wash, Labsystems) to remove extracellular dye. […] Data were generated by determining max-min fluorescence levels for unstimulated, stimulated, and drug treated samples. IC50 values for test compounds were calculated from % inhibition of VEGF stimulated responses in the absence of inhibitor.

Structure (SMILES): O=C1Nc2ccccc2C1=CNc1cccc(S(=O)(=O)NCCCO)c1 [Example 193, N-(3-Hydroxy-propyl)-3-[(2-oxo-1,2-dihydro-indol-3-ylidenemethyl)-amino]-benzenesulfonamide]
- % inhibition of VEGF or VEGF IC50 in either the VEGF stimulated Ca++ signal assay or KDR assay: either % inhibition of VEGF>79% or VEGIF IC50<1.0 μM

Structure (SMILES): Cc1cccc2c1C(=CNc1cccc(S(=O)(=O)NCCCO)c1)C(=O)N2 [Example 194, N-(3-Hydroxy-propyl)-3-[(4-methyl-2-oxo-1,2-dihydro-indol-3-ylidenemethyl)-amino]-benzenesulfonamide]
- % inhibition of VEGF or VEGF IC50 in either the VEGF stimulated Ca++ signal assay or KDR assay: either % inhibition of VEGF>79% or VEGIF IC50<1.0 μM

Structure (SMILES): O=C1Nc2ccccc2C1=CNc1ccc(N2CCOCC2)c(C(=O)O)c1 [Example 195, 2-Morpholin-4-yl-5-[(2-oxo-1,2-dihydro-indol-3-ylidenemethyl)-amino]-benzoic acid]
- % inhibition of VEGF or VEGF IC50 in either the VEGF stimulated Ca++ signal assay or KDR assay: either % inhibition of VEGF>79% or VEGIF IC50<1.0 μM

Structure (SMILES): O=C1Nc2ccccc2C1=CNc1ccc(OCCCCl)cc1 [Example 198, 3-{[4-(3-Chloro-propoxy)-phenylamino]-methylene}-1,3-dihydro-indol-2-one]
- % inhibition of VEGF or VEGF IC50 in either the VEGF stimulated Ca++ signal assay or KDR assay: either % inhibition of VEGF>79% or VEGIF IC50<1.0 μM

Structure (SMILES): O=C1Nc2ccccc2C1=CNc1ccc(OCCCCCl)cc1 [Example 199, 3-{[4-(4-Chloro-butoxy)-phenylamino]-methylene}-1,3-dihydro-indol-2-one]
- % inhibition of VEGF or VEGF IC50 in either the VEGF stimulated Ca++ signal assay or KDR assay: either % inhibition of VEGF>79% or VEGIF IC50<1.0 μM

Structure (SMILES): O=C1Nc2ccccc2C1=CNc1ccc(OCCCI)cc1 [Example 200, 3-{[4-(3-Iodo-propoxy)-phenylamino]-methylene}-1,3-dihydro-indol-2-one]
- % inhibition of VEGF or VEGF IC50 in either the VEGF stimulated Ca++ signal assay or KDR assay: either % inhibition of VEGF>79% or VEGIF IC50<1.0 μM

Structure (SMILES): O=C1Nc2ccc(F)cc2C1=CNc1ccc(N2CCCCC2)cc1 [Example 221]
- pIC50 (HUVEC, 0.01 to 10.0 μM, VEGF 5 ng/mL): ≥ 6.00
- % inhibition of VEGF or VEGF IC50 in either the VEGF stimulated Ca++ signal assay or KDR assay: either % inhibition of VEGF>79% or VEGIF IC50<1.0 μM

Structure (SMILES): COc1ccc(NC=C2C(=O)Nc3ccc(F)cc32)cc1 [Example 222, 5-Fluoro-3-[(4-methoxy-phenylamino)-methylene]-1,3-dihydro-indol-2-one]
- % inhibition of VEGF or VEGF IC50 in either the VEGF stimulated Ca++ signal assay or KDR assay: either % inhibition of VEGF>79% or VEGIF IC50<1.0 μM

Structure (SMILES): O=C1Nc2ccc([N+](=O)[O-])cc2C1=CNc1ccc(N2CCOCC2)cc1 [Example 236, 3-[(4-Morpholin-4-yl-phenylamino)-methylene]-5-nitro-1,3-dihydro-indol-2-one]
- % inhibition of VEGF or VEGF IC50 in either the VEGF stimulated Ca++ signal assay or KDR assay: either % inhibition of VEGF>79% or VEGIF IC50<1.0 μM

Structure (SMILES): N#Cc1ccc2c(c1)C(=CNc1ccc(N3CCOCC3)cc1)C(=O)N2 [Example 237, 3-[(4-Morpholin-4-yl-phenylamino)-methylene]-2-oxo-2 ,3-dihydro-1 h-indole-5-carbonitrile]
- % inhibition of VEGF or VEGF IC50 in either the VEGF stimulated Ca++ signal assay or KDR assay: either % inhibition of VEGF>79% or VEGIF IC50<1.0 μM

Structure (SMILES): O=C1Nc2ccc(Cl)cc2C1=CNc1ccc(OCCCN2CCCCC2)cc1 [Example 241, 5-Chloro-3-{[4-(3-piperidin-1-yl-propoxy)-phenylamino]-methylene}-1,3-dihydro-indol-2-one]
- % inhibition of VEGF or VEGF IC50 in either the VEGF stimulated Ca++ signal assay or KDR assay: either % inhibition of VEGF>79% or VEGIF IC50<1.0 μM

Structure (SMILES): O=C1Nc2cccc(F)c2C1=CNc1ccc(OCCCN2CCCCC2)cc1 [Example 255, 4-Fluoro-3-{[4-(3-piperidin-1-yl-propoxy)-phenylamino]-methylene}-1,3-dihydro-indol-2-one]
- % inhibition of VEGF or VEGF IC50 in either the VEGF stimulated Ca++ signal assay or KDR assay: either % inhibition of VEGF>79% or VEGIF IC50<1.0 μM

Structure (SMILES): O=C1Nc2cccc(F)c2C1=CNc1ccc(CN2CCCCC2)cc1 [Example 257, 4-Fluoro-3-[(4-piperidin-1-ylmethyl-phenylamino)-methylene]-1,3-dihydro-indol-2-one]
- % inhibition of VEGF or VEGF IC50 in either the VEGF stimulated Ca++ signal assay or KDR assay: either % inhibition of VEGF>79% or VEGIF IC50<1.0 μM

Structure (SMILES): O=C1Nc2cccc(F)c2C1=CNc1ccc(OCCN2CCCCC2)cc1 [Example 261, 4-Fluoro-3-{[4-(2-piperidin-1-yl-ethoxy)-phenylamino]-methylene}-1,3-dihydro-indol-2-one]
- % inhibition of VEGF or VEGF IC50 in either the VEGF stimulated Ca++ signal assay or KDR assay: either % inhibition of VEGF>79% or VEGIF IC50<1.0 μM

Structure (SMILES): CCN(CC)CCCOc1ccc(NC=C2C(=O)Nc3cccc(F)c32)cc1F [Example 267, 3-{[4-(3-Diethylamino-propoxy)-3-fluoro-phenylamino]-methylene}-4-fluoro-1,3-dihydro-indol-2-one]
- % inhibition of VEGF or VEGF IC50 in either the VEGF stimulated Ca++ signal assay or KDR assay: either % inhibition of VEGF>79% or VEGIF IC50<1.0 μM

Structure (SMILES): COc1cccc(-c2ccc3c(c2)NC(=O)C3=CNc2ccc(N3CCN(C)CC3)cc2)c1 [Example 268, 6-(3-Methoxy-phenyl)-3-{[4-(4-methyl-piperazin-1-yl)-phenylamino]-methylene}-1,3-dihydro-indol-2-one]
- % inhibition of VEGF or VEGF IC50 in either the VEGF stimulated Ca++ signal assay or KDR assay: either % inhibition of VEGF>79% or VEGIF IC50<1.0 μM

Structure (SMILES): O=C1Nc2cccc(F)c2C1=CNc1ccc(OCCN2CCCC2)cc1 [Example 273, 4-Fluoro-3-{[4-(2-pyrrolidin-1-yl-ethoxy)-phenylamino]-methylene}-1,3-dihydro-indol-2-one]
- % inhibition of VEGF or VEGF IC50 in either the VEGF stimulated Ca++ signal assay or KDR assay: either % inhibition of VEGF>79% or VEGIF IC50<1.0 μM

Structure (SMILES): COc1cccc(-c2ccc3c(c2)NC(=O)C3=CNc2ccc(OCCCN3CCCCC3)cc2)c1 [Example 276, 6-(3-Methoxy-phenyl)-3-{[4-(3-piperidin-1-yl-propoxy)-phenylamino]-methylene}-1,3-dihydro-indol-2-one]
- % inhibition of VEGF or VEGF IC50 in either the VEGF stimulated Ca++ signal assay or KDR assay: either % inhibition of VEGF>79% or VEGIF IC50<1.0 μM

Structure (SMILES): CCN(CC)CCCOc1ccc(NC=C2C(=O)Nc3cc(-c4cccc(OC)c4)ccc32)cc1 [Example 277, 3-{[4-(3-Diethylamino-propoxy)-phenylamino]-methylene}-6-(3-Methoxy-phenyl)-1,3-dihydro-indol-2-one]
- % inhibition of VEGF or VEGF IC50 in either the VEGF stimulated Ca++ signal assay or KDR assay: either % inhibition of VEGF>79% or VEGIF IC50<1.0 μM

Structure (SMILES): CN1CCN(CCCNc2ccc(NC=C3C(=O)Nc4ccccc43)cc2)CC1 [Example 302, 3-({4-[3-(4-Methyl-piperazin-1-yl)-propylamino]-phenylamino}-methylene)-1,3-dihydro-indol-2-one]
- % inhibition of VEGF or VEGF IC50 in either the VEGF stimulated Ca++ signal assay or KDR assay: either % inhibition of VEGF>79% or VEGIF IC50<1.0 μM

Structure (SMILES): Cc1cccc2c1C(=CNc1ccc(NCCCN3CCN(C)CC3)cc1)C(=O)N2 [Example 303, 4-Methyl-3-({4-[3-(4-methyl-piperazin-1-yl)-propylamino]-phenylamino}-methylene)-1,3-dihydro-indol-2-one]
- % inhibition of VEGF or VEGF IC50 in either the VEGF stimulated Ca++ signal assay or KDR assay: either % inhibition of VEGF>79% or VEGIF IC50<1.0 μM

Structure (SMILES): CN1CCN(CCCNc2ccc(NC=C3C(=O)Nc4cc(F)ccc43)cc2)CC1 [Example 304, 6-Fluoro-3-({4-[3-(4-methyl-piperazin-1-yl)-propylamino]-phenylamino}-methylene)-1,3-dihydro-indol-2-one]
- % inhibition of VEGF or VEGF IC50 in either the VEGF stimulated Ca++ signal assay or KDR assay: either % inhibition of VEGF>79% or VEGIF IC50<1.0 μM

Structure (SMILES): O=C1Nc2ccccc2C1=CNc1ccc(CCCCN2CCOCC2)cc1 [Example 312, 3-{[4-(4-Morpholin-4-yl-butyl)-phenylamino]-methylene}-1,3-dihydro-indol-2-one]
- % inhibition of VEGF or VEGF IC50 in either the VEGF stimulated Ca++ signal assay or KDR assay: either % inhibition of VEGF>79% or VEGIF IC50<1.0 μM
